By UniProt entry, the sequences of proteins in these tests, tags left out.
UniProt Q9UGL1: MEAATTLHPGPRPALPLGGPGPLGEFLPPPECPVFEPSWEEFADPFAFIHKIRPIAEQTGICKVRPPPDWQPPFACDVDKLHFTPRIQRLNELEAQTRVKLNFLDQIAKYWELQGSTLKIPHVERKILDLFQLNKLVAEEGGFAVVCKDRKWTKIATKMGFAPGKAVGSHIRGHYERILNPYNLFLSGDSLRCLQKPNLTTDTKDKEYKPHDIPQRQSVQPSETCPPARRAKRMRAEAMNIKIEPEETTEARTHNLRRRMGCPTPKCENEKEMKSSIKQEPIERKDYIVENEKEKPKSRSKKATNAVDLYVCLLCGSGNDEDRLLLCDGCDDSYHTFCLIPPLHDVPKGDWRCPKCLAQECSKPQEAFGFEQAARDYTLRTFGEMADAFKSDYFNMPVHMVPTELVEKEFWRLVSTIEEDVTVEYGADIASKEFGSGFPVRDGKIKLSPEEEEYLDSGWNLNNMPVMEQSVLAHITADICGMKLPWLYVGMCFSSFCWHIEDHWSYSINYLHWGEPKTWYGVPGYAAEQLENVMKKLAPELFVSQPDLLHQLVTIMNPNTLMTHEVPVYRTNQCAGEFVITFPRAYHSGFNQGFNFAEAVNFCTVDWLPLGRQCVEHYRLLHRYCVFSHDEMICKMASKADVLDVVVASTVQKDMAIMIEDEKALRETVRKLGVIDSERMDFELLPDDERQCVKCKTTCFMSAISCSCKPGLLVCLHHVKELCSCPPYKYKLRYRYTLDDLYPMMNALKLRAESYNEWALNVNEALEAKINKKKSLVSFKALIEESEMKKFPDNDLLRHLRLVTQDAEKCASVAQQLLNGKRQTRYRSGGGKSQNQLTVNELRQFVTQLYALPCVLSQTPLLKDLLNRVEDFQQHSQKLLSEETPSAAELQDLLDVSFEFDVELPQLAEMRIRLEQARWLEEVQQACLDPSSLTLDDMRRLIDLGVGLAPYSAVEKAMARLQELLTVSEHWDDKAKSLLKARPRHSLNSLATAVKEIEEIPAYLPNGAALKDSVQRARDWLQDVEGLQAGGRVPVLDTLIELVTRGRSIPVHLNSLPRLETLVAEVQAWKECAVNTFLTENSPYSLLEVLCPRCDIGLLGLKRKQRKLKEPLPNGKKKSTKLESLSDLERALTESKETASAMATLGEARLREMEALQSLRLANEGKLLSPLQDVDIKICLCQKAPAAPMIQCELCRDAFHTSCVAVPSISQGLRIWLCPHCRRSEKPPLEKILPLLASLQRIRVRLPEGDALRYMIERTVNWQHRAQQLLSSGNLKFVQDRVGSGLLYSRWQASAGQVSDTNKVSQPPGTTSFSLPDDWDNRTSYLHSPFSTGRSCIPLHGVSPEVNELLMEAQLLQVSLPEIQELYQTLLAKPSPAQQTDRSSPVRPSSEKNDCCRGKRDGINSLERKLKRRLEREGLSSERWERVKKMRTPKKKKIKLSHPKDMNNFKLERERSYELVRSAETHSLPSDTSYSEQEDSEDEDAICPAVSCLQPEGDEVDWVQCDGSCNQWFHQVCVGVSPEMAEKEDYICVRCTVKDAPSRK
UniProt Q12778: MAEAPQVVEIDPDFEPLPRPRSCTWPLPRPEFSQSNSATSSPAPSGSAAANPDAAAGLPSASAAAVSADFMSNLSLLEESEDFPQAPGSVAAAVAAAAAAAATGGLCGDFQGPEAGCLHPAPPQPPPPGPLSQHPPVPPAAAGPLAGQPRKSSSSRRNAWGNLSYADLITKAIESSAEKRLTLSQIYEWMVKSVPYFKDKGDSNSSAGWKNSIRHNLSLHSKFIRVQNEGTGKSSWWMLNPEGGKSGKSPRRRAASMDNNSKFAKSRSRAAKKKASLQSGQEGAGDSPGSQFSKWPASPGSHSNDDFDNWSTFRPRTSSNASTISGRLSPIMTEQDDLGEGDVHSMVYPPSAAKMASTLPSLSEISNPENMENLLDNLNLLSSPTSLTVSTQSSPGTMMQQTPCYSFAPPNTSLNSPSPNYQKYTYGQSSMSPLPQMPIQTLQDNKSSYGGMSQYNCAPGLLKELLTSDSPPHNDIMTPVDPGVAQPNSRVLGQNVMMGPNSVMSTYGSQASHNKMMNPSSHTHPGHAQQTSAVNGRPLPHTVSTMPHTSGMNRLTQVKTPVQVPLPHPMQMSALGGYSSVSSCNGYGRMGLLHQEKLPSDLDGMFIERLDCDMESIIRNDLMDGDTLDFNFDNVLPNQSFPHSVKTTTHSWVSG
UniProt O43524: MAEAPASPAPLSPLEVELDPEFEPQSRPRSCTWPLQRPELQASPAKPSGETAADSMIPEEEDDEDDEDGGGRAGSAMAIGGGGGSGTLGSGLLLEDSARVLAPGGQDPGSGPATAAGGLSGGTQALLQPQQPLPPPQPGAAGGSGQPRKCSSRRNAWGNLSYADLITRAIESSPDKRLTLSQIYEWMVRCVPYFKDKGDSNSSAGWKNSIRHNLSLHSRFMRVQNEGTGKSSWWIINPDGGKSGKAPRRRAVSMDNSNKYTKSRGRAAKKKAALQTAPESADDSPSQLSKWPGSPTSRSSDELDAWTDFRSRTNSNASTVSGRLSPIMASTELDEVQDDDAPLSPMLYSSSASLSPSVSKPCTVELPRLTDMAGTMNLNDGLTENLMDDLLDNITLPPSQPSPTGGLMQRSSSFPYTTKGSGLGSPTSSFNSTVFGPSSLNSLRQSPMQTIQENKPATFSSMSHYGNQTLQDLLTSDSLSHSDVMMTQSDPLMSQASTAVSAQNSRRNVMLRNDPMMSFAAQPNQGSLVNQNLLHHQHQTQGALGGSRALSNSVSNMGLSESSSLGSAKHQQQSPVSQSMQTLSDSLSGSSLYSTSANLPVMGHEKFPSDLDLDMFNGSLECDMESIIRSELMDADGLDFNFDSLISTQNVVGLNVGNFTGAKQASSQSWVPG
UniProt P98177: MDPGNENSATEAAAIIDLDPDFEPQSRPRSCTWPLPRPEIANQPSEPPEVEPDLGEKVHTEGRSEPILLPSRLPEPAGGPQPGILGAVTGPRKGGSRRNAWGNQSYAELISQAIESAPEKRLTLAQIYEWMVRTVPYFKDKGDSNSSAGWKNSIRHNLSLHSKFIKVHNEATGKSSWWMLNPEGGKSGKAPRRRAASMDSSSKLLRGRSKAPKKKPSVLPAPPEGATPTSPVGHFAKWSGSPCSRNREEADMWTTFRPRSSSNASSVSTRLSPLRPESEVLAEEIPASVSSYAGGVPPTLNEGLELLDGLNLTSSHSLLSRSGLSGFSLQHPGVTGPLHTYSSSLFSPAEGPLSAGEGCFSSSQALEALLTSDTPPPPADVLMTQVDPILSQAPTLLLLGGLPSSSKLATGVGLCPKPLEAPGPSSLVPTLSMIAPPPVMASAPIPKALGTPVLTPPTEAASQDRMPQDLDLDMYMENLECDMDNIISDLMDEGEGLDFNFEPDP
UniProt Q13547: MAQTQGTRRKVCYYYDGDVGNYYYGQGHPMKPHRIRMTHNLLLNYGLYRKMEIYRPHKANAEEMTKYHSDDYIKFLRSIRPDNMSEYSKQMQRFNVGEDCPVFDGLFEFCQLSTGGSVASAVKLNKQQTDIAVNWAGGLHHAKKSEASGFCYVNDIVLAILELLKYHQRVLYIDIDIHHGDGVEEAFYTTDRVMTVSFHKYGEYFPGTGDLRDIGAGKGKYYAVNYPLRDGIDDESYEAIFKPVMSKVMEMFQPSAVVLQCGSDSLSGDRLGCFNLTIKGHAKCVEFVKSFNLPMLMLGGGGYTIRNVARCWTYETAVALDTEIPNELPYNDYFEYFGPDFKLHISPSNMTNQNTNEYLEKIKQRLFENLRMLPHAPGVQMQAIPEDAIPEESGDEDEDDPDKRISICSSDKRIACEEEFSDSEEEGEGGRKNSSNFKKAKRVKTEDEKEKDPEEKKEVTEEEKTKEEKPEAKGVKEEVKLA

No constants are given. Whether binding was seen depends on the method and setting. In cells and extracts the contact can be indirect. A yes stands for co-enrichment or nearness to the bait. Other partners may have been found. No binding means not detected with the bait.
Each substance was assayed against KDM5B (human (endogenous in WM3734)) (UniProt Q9UGL1) (assay: affinity purification with mass spectrometry).
FOXO1 (from UniProt Q12778 1-655) was tested, and the binding was “no binding”. In the case of FOXO3 (from UniProt O43524 1-673), the binding is reported as “no binding”. With FOXO4 (from UniProt P98177 1-505) the binding was “no binding”. “HDAC1 (from UniProt Q13547 1-482) (enzyme)” was tested, and the binding was “binds”.

Reference: publication doi:10.1101/2025.03.10.641595
